The text below walks through data of publication doi:10.1101/2023.01.10.523476 (bioRxiv, 2023).

These are yes or no findings as the source states them, for the method shown. Binding calls can cover weak binding; strength is not graded here. Tags and fused reporters may be left off the sequences shown.

In the assay the target is T1, GspDβ secretin (ETEC H10407 strain) with hexahistidine tag (Enterotoxigenic E. coli (ETEC) H10407 strain) (UniProt E3PJ86).
T1 sequence: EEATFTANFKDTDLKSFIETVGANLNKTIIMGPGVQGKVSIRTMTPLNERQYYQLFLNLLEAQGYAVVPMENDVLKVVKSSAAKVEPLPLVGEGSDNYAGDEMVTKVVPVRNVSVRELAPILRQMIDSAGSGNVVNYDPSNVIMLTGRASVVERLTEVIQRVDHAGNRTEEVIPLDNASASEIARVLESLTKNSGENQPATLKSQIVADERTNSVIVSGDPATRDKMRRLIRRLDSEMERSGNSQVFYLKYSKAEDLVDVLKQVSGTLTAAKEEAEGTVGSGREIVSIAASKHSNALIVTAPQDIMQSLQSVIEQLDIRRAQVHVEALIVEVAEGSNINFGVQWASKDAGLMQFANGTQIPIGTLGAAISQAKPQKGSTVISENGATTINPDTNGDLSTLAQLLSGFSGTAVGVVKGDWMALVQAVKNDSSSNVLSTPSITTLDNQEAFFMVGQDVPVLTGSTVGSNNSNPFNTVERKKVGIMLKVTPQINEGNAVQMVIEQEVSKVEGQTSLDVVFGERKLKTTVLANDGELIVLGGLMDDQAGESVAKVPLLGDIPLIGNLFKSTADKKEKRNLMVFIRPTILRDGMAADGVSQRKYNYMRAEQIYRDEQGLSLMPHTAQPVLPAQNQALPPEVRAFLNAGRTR
In words: cryo-EM structure.

On to “GspS pilotin (ETEC H10407 strain), no tag”, for which the binding entry was “binds”.

Consider E. coli endogenous GspS, for which the binding entry was “binds”.
